Assay results as given in patent US9150840B2, “Isolated bacterial strain of Achromobacter sp. MTCC 5605 and a highly enantioselective epoxide hydrolase isolated therefrom” (COUNCIL OF SCIENTIFIC & INDUSTRIAL RESEARCH, priority 2011, dated 2015).

System: epoxide hydrolase from Achromobacter sp. MTCC 5605
Assay type: biochemical

Compound | Diol product ee | Residual epoxide ee | Enantiomeric ratio E | ees (enantiomeric excess of the substrate), (S)-enantiomer
C=C(C)[C@@H]1CCC2(C)OC2C1 (single isomer, unassigned; (+)) [(+) Limonene epoxide] | 32% | >90% |  | 
COc1ccc(OCC2CO2)cc1 (stereo not shown) [4-Methoxy phenyl glycidyl ether] | 23% | >86% |  | 
c1ccc(COCC2CO2)cc1 (stereo not shown) [Benzyl glycidyl ether] | 39% | >99% |  | 
c1ccc2c(c1)CC1OC21 (stereo not shown) [Indene oxide] |  | >92% |  | 
c1ccc(OCC2CO2)cc1 (stereo not shown) [Phenyl glycidyl ether] | 26% | >80% |  | 
c1ccc(C2CO2)cc1 (stereo not shown) [Styrene oxide] | 65% | >99% | 64.09 | > 99%
